The values below come from publication PMC2702331.

Sequences of proteins named here, by UniProt entry; tags and fusion partners are left off. Residues count along the entry.
UniProt P04608: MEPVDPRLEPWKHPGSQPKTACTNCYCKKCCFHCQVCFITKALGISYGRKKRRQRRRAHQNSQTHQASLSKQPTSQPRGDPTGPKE
UniProt Q92621: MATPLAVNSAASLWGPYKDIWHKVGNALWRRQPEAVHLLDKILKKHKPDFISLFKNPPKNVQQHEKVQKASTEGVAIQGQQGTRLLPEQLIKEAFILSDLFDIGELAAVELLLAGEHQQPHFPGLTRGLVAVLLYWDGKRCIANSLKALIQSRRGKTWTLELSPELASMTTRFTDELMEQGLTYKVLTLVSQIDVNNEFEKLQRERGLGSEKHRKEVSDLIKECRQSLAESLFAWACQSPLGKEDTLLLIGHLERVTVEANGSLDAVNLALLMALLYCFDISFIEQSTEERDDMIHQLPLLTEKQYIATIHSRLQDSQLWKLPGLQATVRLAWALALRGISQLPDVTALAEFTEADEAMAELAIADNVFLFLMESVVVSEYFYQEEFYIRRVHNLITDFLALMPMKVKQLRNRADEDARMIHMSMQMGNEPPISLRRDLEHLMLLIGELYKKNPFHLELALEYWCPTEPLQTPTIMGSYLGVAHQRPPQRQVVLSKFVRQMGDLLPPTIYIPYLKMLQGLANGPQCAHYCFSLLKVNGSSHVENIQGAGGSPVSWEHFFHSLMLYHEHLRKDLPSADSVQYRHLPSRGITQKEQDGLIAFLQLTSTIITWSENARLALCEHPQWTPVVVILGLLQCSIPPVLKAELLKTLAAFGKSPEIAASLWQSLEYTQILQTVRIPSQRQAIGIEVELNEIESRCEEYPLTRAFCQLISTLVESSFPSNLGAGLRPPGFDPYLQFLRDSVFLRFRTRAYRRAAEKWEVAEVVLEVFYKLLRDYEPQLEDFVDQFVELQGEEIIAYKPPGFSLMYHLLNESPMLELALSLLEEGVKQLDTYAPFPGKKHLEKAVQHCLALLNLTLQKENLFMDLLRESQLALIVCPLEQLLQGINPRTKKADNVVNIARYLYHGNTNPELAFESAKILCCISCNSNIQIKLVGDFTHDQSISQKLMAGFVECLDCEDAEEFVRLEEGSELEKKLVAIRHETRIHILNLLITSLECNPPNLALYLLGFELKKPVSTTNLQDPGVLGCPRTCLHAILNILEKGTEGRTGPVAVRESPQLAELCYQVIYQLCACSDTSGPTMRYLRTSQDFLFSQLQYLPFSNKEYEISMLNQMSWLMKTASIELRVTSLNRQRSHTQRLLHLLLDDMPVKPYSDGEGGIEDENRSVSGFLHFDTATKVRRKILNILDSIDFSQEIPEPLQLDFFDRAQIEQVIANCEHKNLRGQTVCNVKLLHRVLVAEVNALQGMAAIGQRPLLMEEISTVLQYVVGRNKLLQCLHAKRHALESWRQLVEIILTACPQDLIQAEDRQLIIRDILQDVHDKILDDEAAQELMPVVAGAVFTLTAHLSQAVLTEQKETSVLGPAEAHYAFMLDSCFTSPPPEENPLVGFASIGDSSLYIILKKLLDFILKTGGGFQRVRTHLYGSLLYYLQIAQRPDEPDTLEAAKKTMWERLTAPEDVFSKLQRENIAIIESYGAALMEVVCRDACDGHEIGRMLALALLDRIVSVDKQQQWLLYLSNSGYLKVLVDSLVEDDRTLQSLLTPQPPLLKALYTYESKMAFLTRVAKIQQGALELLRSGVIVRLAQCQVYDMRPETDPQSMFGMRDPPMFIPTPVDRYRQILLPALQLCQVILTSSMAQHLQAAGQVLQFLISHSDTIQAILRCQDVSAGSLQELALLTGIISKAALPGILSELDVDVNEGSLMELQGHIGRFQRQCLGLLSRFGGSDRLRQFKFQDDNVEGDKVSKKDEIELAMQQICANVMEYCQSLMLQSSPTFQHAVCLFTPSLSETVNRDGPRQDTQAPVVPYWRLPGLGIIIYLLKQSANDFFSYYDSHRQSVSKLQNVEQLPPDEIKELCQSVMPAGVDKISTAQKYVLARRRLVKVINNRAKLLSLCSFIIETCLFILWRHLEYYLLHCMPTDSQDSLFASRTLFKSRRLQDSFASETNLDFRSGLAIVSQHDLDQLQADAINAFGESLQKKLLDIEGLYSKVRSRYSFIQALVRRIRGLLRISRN
UniProt O14980: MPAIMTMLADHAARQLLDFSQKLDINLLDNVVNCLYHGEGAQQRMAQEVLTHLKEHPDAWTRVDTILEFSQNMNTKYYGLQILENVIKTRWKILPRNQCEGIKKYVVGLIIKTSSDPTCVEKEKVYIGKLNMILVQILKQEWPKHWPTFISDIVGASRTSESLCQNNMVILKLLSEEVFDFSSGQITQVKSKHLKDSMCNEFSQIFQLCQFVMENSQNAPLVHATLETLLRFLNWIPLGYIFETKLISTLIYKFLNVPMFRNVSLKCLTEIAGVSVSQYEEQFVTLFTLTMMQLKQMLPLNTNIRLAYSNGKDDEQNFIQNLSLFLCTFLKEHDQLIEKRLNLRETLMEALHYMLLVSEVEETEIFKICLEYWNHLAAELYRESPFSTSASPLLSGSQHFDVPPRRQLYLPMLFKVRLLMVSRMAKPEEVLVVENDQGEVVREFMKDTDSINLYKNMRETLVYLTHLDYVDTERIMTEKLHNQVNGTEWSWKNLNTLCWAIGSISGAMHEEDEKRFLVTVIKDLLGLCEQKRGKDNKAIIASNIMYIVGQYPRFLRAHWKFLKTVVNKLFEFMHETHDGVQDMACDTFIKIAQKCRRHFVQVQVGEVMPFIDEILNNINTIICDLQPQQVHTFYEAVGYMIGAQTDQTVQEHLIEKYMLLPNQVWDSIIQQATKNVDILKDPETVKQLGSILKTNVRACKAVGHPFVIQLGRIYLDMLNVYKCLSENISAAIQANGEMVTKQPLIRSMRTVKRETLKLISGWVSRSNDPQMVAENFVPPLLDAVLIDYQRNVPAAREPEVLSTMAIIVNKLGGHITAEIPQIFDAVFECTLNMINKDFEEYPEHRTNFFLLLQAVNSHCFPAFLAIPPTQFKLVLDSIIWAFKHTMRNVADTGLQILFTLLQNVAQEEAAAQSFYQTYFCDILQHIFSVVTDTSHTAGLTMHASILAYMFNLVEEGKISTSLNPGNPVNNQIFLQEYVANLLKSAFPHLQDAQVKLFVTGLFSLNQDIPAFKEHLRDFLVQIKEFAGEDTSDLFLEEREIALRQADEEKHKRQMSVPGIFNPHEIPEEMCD
UniProt Q07021, residues 74-282: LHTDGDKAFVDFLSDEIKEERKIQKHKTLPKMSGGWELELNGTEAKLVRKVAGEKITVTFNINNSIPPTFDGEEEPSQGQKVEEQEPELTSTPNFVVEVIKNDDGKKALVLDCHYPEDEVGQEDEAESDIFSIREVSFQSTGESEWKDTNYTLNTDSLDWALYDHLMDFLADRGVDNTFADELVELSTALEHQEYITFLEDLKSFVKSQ
UniProt Q92769: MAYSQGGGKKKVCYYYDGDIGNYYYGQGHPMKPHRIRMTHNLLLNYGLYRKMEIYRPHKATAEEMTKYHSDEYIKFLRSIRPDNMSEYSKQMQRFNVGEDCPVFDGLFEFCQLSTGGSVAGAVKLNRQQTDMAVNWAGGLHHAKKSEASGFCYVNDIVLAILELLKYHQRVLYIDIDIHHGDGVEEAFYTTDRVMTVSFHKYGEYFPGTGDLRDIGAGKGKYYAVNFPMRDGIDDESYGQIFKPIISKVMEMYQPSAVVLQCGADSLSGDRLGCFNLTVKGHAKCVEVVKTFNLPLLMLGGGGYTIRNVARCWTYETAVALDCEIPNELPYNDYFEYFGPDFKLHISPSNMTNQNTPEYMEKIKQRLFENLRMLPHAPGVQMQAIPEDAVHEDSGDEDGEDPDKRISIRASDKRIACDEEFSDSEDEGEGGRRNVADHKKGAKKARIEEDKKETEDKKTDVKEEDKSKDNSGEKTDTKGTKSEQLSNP
UniProt Q14974: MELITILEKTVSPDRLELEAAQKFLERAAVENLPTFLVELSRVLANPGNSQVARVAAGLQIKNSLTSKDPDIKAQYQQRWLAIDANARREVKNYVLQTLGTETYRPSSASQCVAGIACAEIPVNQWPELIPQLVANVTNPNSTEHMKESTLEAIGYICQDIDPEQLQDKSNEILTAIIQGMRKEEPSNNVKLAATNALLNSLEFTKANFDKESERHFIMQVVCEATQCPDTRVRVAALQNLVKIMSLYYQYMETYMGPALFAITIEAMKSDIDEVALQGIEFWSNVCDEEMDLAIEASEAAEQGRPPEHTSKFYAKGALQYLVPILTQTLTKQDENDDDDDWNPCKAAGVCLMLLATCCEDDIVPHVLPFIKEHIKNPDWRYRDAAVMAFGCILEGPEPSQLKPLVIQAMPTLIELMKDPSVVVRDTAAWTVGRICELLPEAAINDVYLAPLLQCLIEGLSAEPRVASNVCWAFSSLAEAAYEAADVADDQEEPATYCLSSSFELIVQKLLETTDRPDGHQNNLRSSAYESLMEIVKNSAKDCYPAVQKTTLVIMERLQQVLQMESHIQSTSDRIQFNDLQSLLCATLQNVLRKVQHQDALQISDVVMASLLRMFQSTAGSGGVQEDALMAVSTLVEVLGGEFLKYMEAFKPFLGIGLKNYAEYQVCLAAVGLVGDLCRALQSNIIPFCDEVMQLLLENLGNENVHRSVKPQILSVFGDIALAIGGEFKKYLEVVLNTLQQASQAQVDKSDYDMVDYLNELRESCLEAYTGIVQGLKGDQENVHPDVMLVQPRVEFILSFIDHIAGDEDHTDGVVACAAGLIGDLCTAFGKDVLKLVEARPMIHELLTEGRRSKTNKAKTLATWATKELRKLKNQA
UniProt O14981: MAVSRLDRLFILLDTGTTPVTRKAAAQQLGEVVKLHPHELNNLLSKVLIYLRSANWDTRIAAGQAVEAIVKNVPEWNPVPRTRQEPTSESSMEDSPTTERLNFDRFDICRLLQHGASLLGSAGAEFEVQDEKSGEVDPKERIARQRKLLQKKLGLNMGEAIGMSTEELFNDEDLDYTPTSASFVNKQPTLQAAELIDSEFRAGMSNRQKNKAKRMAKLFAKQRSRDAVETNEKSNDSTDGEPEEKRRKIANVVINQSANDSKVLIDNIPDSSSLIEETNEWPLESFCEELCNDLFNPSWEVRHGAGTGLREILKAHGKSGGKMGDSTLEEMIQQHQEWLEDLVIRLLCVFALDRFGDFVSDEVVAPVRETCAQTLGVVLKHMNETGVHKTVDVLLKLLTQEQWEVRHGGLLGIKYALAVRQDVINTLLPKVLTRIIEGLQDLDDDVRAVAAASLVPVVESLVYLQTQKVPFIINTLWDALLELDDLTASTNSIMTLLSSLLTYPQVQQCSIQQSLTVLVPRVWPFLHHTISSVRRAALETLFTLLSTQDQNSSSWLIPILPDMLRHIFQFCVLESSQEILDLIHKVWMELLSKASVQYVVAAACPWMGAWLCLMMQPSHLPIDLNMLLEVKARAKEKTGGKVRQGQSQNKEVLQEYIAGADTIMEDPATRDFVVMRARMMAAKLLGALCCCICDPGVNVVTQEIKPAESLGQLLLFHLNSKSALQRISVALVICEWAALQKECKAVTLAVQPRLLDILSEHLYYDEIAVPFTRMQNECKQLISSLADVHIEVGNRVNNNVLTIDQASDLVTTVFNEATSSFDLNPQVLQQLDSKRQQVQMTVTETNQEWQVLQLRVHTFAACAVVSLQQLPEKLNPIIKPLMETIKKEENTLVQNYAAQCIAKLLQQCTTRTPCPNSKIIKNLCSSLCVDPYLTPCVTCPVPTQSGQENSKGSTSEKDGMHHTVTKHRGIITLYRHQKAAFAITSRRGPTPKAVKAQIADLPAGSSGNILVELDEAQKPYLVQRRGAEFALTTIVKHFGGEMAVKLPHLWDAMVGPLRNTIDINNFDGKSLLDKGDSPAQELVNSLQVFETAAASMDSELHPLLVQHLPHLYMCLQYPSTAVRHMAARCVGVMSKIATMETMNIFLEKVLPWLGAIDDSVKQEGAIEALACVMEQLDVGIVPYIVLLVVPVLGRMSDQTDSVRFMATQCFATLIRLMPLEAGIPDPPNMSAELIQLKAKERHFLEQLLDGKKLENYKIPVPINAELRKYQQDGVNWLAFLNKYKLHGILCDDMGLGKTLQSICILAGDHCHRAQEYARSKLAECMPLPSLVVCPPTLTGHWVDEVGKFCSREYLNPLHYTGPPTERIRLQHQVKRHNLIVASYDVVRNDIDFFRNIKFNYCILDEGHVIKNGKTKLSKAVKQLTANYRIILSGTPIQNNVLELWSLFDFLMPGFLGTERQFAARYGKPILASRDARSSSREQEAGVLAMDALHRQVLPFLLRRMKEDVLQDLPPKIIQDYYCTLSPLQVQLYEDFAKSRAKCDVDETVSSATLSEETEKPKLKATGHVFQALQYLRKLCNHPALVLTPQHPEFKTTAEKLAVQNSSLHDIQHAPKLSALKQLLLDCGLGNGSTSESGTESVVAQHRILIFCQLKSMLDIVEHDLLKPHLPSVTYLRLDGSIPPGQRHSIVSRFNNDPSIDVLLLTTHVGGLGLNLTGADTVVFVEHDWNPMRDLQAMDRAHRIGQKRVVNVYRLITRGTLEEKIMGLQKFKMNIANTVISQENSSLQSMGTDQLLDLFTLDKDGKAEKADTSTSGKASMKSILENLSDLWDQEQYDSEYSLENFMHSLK

Results are given in words; binding and its absence hold for the method and conditions named. Binding seen in cells or lysates may run through a third protein. A yes stands for co-enrichment or nearness to the bait. Other partners may have been found.

This assay has as its target GST-Tat (HIV-1 HXB2, 86 amino acids) (HIV-1 HXB2) (UniProt P04608). Put plainly: affinity purification with mass spectrometry; only the target purified.
On to BAF53A (from UniProt O96019 1-429), for which the binding entry is listed as “binds”.
Under RUVBL1 (from UniProt Q9Y265 1-456) stands “binds”.
Under “Lamin B receptor (from UniProt Q14739 1-615)” stands “binds”; under SUZ12 (from UniProt Q15022 1-739), “binds”; under RbAp48 (from UniProt Q09028 1-425), “binds”.
Regarding BRG1 (from UniProt P51532 1-1647), the binding entry is listed as “binds”.
Under EEF1D (from UniProt P29692-2) stands “binds”; under PPP1CC (from UniProt P36873 1-323), “binds”; under Nup205 (from UniProt Q92621 1-2012), “binds”.
The entry for TUBB3 (from UniProt Q13509 1-450) is “binds”; for ILF2 (from UniProt Q12905 1-390) it is “binds”.
As for CXXC1 (from UniProt Q9P0U4 1-656), the binding entry was “binds”.
The entry for XPO1 (from UniProt O14980 1-1071) is “binds”.
Under PDS5B (from UniProt Q9NTI5 1-1447) stands “binds”.
The entry for SPT16 (from UniProt Q9Y5B9 1-1047) is “binds”; for c1qbp (from UniProt Q07021 74-282) it is “binds”.
In the case of HDAC-1 (from UniProt Q13547 1-482), the binding result is recorded as “binds”.
The entry for Nup153 (from UniProt P49790 1-1475) is “binds”; for Setd1A (from UniProt O15047 1-1707) it is “binds”; for PDS5A (from UniProt Q29RF7 1-1337) it is “binds”.
The entry for TRRAP (from UniProt Q9Y4A5 1-3859) is “binds”.
Under Nup358 (from UniProt P49792 1-3224) stands “binds”; under MBD2 (from UniProt Q9UBB5 1-411), “binds”; under SNF2H (from UniProt O60264 1-1052), “binds”.
On to SMC3 (from UniProt Q9UQE7 1-1217), for which the binding result was “binds”.
CAPH (from UniProt Q15003 1-741): the binding result is listed as “binds”.
HDAC-2 (from UniProt Q92769 1-488): the binding entry was “binds”.
Under KPNB1 (from UniProt Q14974 1-876) stands “binds”.
The entry for NUMA1 (from UniProt Q14980 1-2115) is “binds”.
For YY1 (from UniProt P25490 1-414), the binding result is “binds”.
Under INI1 (from UniProt Q12824 1-385) stands “binds”; under BTAF1 (from UniProt O14981 1-1849), “binds”.
Under SMC2 (from UniProt O95347 1-1197) stands “binds”; under YEATS4 (from UniProt O95619 1-227), “binds”; under Nup98 (from UniProt P52948 1-880), “binds”.
Under Ikaros (from UniProt Q13422 1-519) stands “binds”.
With DMAP1 (from UniProt Q9NPF5 1-467), the binding result was “binds”.
The entry for DNCL1 (from UniProt P63167 1-89) is “binds”.
Under CAPD2 (from UniProt Q15021 1-1401) stands “binds”.
Take BAF170 (from UniProt Q8TAQ2 1-1214): the binding entry is “binds”.
As to YBX1 (from UniProt P67809 1-324), the binding result is listed as “binds”.
Under SMC4 (from UniProt Q9NTJ3 1-1288) stands “binds”.
The entry for MLL (from UniProt Q03164 1-3969) is “binds”.
Under CTIP2 (from UniProt Q9C0K0 1-894) stands “binds”.
Take SSRP1 (from UniProt Q08945 1-709): the binding entry is “binds”.
Under P400 (from UniProt Q96L91 1-3159) stands “binds”.
The entry for BAF60a (from UniProt Q96GM5 1-515) is “binds”.
